Out of some 340,000 compounds screened, about 6,200 (1.8%) were called active. This list was built around the results that the source calls inconclusive (neither active nor inactive); the mix of calls is not that of the screen. The call rests on the fitted dose curve; in most records, active means well fitted activation curve with a large enough effect; inconclusive means small, poorly fitted or top-dose-only effect; inactive means no such curve, though single readings can be large or run the other way. Potencies beside an inconclusive call are fits to weak or partial responses and may not hold up.
Experiment: A quantitative high throughput screen for small molecules that induce DNA re-replication in SW480 colon adenocarcinoma cells. Further: nearly all actives have a fitted effect of over 55% in size. On re-replication activation: % of control where 0% means no effect.
Conditions: Hoechst DNA content imaging, 48 h; re-replication activation: at 46.1 µM (top of the series) unless noted
Outline: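 SW480 cells exposed to compounds for 48 hr at 37 C, 5% CO2, then Hoechst-stained 40 min. Nuclear DNA content imaged by fluorescence scanning (405 nm excitation, 500-530 nm emission); re-replication scored as increased high-intensity nuclei.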
For `CCc1nc(N2CCN(C(C)=O)CC2)c2c3c(sc2n1)CC(C(C)(C)C)CC3` (stereo not drawn), the “re-replication activation” value was inactive: 10.3%. In the case of `O=C(/C=C/c1cn(-c2ccccc2)nc1-c1cccnc1)c1ccco1`, the Potency is reported as inconclusive: 20.6 µM [activator, partial curve, poor fit]. With `Cc1ccc(NC(=O)c2cc3ccccc3oc2=O)cc1S(=O)(=O)N(C)C` the “re-replication activation” value was inactive: 18.9%. For `CCc1ccc(NC(=O)C(NS(=O)(=O)c2cccc3nsnc23)c2ccccc2)cc1` (stereo not drawn), the Potency was inconclusive: 25.9 µM [activator, partial curve, poor fit]. With `C#CCOc1ccc(/C=C2/C(=O)ON=C2C)cc1OCC` the Potency was inconclusive: 23.1 µM [activator, single point]. For `O=C(COC(=O)Cc1ccc(F)cc1)NC1CCCCCC1`, the Potency was inconclusive: 0.461 µM [activator, partial curve, poor fit]. With `O=C(N/N=C\C=C\c1ccco1)c1cncc(Br)c1` the Potency was inconclusive: 20.6 µM [activator, single point]. For `O=C(CS(=O)c1ccc(C(F)(F)F)cc1[N+](=O)[O-])Oc1ccccc1` (stereo not drawn), the Potency was inconclusive: 2.91 µM [activator, full curve]. For `COc1ccc(Oc2nc(SC)nc3ccsc23)cc1`, the Potency was inconclusive: 29.1 µM [activator, single point]. In the case of `CC(C)NC(=S)NCc1cccs1`, the Potency is reported as inconclusive: 20.6 µM [activator, partial curve, poor fit]. In the case of `Cc1cc(S(=O)(=O)N2CCc3ccccc3C2)ccc1F`, the “re-replication activation” value is reported as inactive: 1.7%. In the case of `CCn1c(SCC(=O)N2c3ccccc3Sc3ccccc32)nnc1-c1ccco1`, the “re-replication activation” value is reported as inactive: 5.31%. With `O/N=C/CCn1c(=S)sc2ccccc21` the Potency was inconclusive: 18.4 µM [activator, single point]. With `Cc1cc(C(=O)N/N=C/c2c(CO)cnc(C)c2O)c2ccccc2n1` the Potency was inconclusive: 6.51 µM [activator, partial curve]. For `O=C(NNC(=O)c1cc2cc(OC(F)(F)F)ccc2[nH]1)c1ccc(Cl)cc1`, the Potency was inconclusive: 6.51 µM [activator, single point]. With `COc1ccc(CC2(CO)CCN(Cc3ccc4c(c3)CCO4)CC2)cc1` the “re-replication activation” value was inactive: -1%. For `CC(=O)Nc1ccc(NC(=O)COC(=O)C2c3ccccc3Oc3ccccc32)cc1`, the “re-replication activation” value was inactive: 3.42%. In the case of `Cc1c(C(=O)N2c3ccccc3CC2C)oc2ccccc12` (stereo not drawn), the Potency is reported as inconclusive: 29.1 µM [activator, single point]. For `COCCC(=O)N1CCC(Oc2ccc(C(=O)NCc3cc(C)n(C)n3)cc2)CC1`, the Potency was inconclusive: 29.1 µM [activator, single point]. In the case of `O=C(c1ccc(O)c(Br)c1)c1cc(Br)ccc1O`, the “re-replication activation” value is reported as inactive: 4.42%. In the case of `CCCCCCCCCCCCCCC(O)C[N+](C)(CCO)CCO` (stereo not drawn), the Potency is reported as inconclusive: 20.6 µM [activator, single point]. With `COc1cccc(NC(=O)CN(C)CC(=O)Nc2ccccc2-c2ccccc2)c1` the Potency was inconclusive: 3.98 µM [activator, single point]. With `CN1CCN(C(=O)/C(=C/c2cn(S(=O)(=O)N(C)C)c3ccccc23)NC(=O)c2ccccc2Cl)CC1` the “re-replication activation” value was inactive: 11.4%. With `O=C(OCC(=O)N1CCc2ccccc21)c1cncc(Br)c1` the “re-replication activation” value was inactive: -7.17%. For `CCOCCOC(=O)COc1ccc2c(-c3ccccc3)cc(=O)oc2c1`, the Potency was inconclusive: 20.6 µM [activator, partial curve, poor fit]. For `Cc1ccc(-c2nc(N)nc(N)n2)c(C)c1`, the “re-replication activation” value was inactive: 5.99%. For `CC(C)(C)OC(=O)NCCCC[C@H](NC(=O)c1nc[nH]c1C(=O)N[C@@H](CCCCNC(=O)OC(C)(C)C)C(=O)OC(C)(C)C)C(=O)OC(C)(C)C`, the Potency was inconclusive: 3.66 µM [activator, partial curve, poor fit]. In the case of `S=C(Nc1ccc(Cl)c(Cl)c1)NC1CCN(Cc2ccccc2)CC1`, the Potency is reported as inconclusive: 29.1 µM [activator, single point]. For `O=C(CN1C(=O)c2ccc([N+](=O)[O-])cc2C1=O)Nc1cc(S(=O)(=O)N2CCOCC2)ccc1Cl`, the “re-replication activation” value was inactive: -0.2%. In the case of `COc1ccc(-c2n[nH]c(=S)n2-c2cc(OC)ccc2OC)cc1`, the Potency is reported as inconclusive: 14.6 µM [activator, single point]. With `CCOc1ccc(Cl)cc1CNCCCSc1nc(C)cc(C)n1` the Potency was inconclusive: 20.6 µM [activator, partial curve, poor fit]. In the case of `NC(N)=N/N=C/c1ccc(Cl)cc1Cl`, the Potency is reported as inconclusive: 25.9 µM [activator, single point]. In the case of `CCN1CCN(c2ccc(NC(=O)c3ccc4c(c3)[nH]c(=O)n4Cc3ccc(OC)cc3)cc2)CC1`, the Potency is reported as inconclusive: 18.4 µM [activator, single point]. For `OC(CNC1CCCC1)COCCOc1ccc(Br)cc1` (stereo not drawn), the Potency was inconclusive: 29.1 µM [activator, single point]. In the case of `Cc1cc2c(SCc3ccccc3Cl)nc(N)nc2nc1C`, the Potency is reported as inconclusive: 16.4 µM [activator, single point]. For `Cc1[nH]c(=O)c(C#N)cc1-c1ccncc1`, the Potency was inconclusive: 0.794 µM [activator, single point]. With `O=C(COc1ccc(Cl)cc1Cl)Nc1nnc(C2=COCCO2)o1` the Potency was inconclusive: 0.0146 µM [activator, full curve, poor fit]. In the case of `OCCNCCCCSc1ccc(Cl)cc1`, the “re-replication activation” value is reported as inactive: 2.74%. For `C#C[C@]1(O)CC[C@H]2[C@@H]3CCc4cc(OC5CCCC5)ccc4[C@H]3CC[C@@]21C`, the Potency was inconclusive: 23.1 µM [activator, partial curve, poor fit]. For `CC1C(=O)N2CCCc3cc(S(=O)(=O)NCCc4ccccc4)cc1c32` (stereo not drawn), the Potency was inconclusive: 3.66 µM [activator, full curve, poor fit]. For `CCn1cc(C(=O)N2CCN(c3cccc(Cl)c3)CC2)c2cc(OC)c(OC)cc2c1=O`, the Potency was inconclusive: 5.17 µM [activator, full curve, poor fit]. In the case of `O=C(N/N=C/c1c[nH]c2ccc(Br)cc12)C1CC1`, the Potency is reported as inconclusive: 14.6 µM [activator, single point]. For `CCn1c(SCC(=O)N2CCN(c3ccccc3)CC2)nnc1-c1c[nH]c2ccccc12`, the Potency was inconclusive: 14.6 µM [activator, single point].
Potency means the concentration at half of the fitted maximal effect.
